From PubChem BioAssay AID1919006 (Molecular Pharmacology Branch, DTP, NCI, 2023)
Where “and” joins values, the source holds several entries; their conditions need not be identical. Identical values can stand only once. This continues a long series; more values of the same kind are listed elsewhere.

Tested on: 885512-296-R-J2-PDC complex spheroid growth, % test/control
Experiment: Anticancer human tumor 885512-296-R-J2-PDC patient-derived breast carcinoma cell line growth inhibition [AhR]
Conditions: stronger effect = lower value; active means viability on the fitted dose curve at most 10% of control; inactive means the rest
From the text: Multicellular complex tumor spheroid response to aryl hydrocarbon receptor antagonists in combination with a variety of drugs and investigational agents in selected tumor cell lines
The current study was undertaken to assess response to aryl hydrocarbon receptor antagonists in combination with standard-of-care drugs and investigational agents in solid tumor complex spheroid models. Complex spheroids include a stromal component modeled by human endothelial cells (HUVEC) and fibroblasts modeled by human mesenchymal stem cells (MSCs). The concentration ranges selected for each drug and investigational agent were based upon clinically achievable concentrations if the clinical Cmax of the agent was known.
Compounds. The drugs and investigational agents: BAY 2416964 (NSC825713), GNF351 (NSC835774), CH-223191 (NSC835775), CPI-455 (NSC825282), aza-TdCyd (NSC777586), decitabine (NSC127716), belinostat (NSC758774), entinostat (NSC756642), pevonedistat (NSC761192), tazemetostat (NSC777109), talazoparib (NSC765396), olaparib (NSC753686), selinexor (NSC780203), nedisertib (M3814, NSC802822), bortezomib (NSC756655), venetoclax (NSC766270), doxorubicin (NSC123127), elimusertib (BAY189344, NSC800525), ceralasertib (AZD6738, NSC777638), TAK-243 (NSC785004), alisertib (NSC759677), etoposide (NSC141540), topotecan (NSC609699), eribulin (NSC707389), gemcitabine (NSC613327), carboplatin (NSC241240), cisplatin (NSC119875), and SN-38 (NSC673596) were obtained from the National Cancer Institute (NCI) Developmental Therapeutics Program Chemical Repository (32). The FDA-approved anticancer drug set is available from the Developmental Therapeutics Program at https://dtp.cancer.gov/organization/dscb/obtaining/available plates.htm. […] The stock solutions were prepared in dimethyl sulfoxide (DMSO, Sigma-Aldrich, St. Louis, MO, cat. D2650), except for the platinum compounds which were prepared in saline (Quality Biological, Gaithersburg, MD, cat. 114-055-101), at 800-fold the tested concentration and stored at -70 degrees C prior to their use. All drugs and investigational agents were tested over a range starting from a high concentration at or near the clinical Cmax and decreasing in half-log increments. If the clinical Cmax for an agent had not been determined, the highest concentration tested was 10 microM (Table 1).
Cell Culture. All cells were maintained in an incubator at 37 degrees C and 5% CO2 with 95% humidity. The PDC lines were cultured according to standard operating procedures established by the NCI PDMR (https://pdmr.cancer.gov). Briefly, all PDCs were thawed and cultured in Matrigel-coated flasks prepared with a working solution of 1X Ham's F-12 nutrient mix, without supplementation (Invitrogen, Waltham, MA, cat. 11765054), 100 U/mL penicillin-streptomycin (Invitrogen, cat. 15140122), and 2.5% Matrigel (Corning Inc., Corning, NY, cat. 354248) for the first three passages. All PDCs were cultured in complete DMEM/F-12 media containing advanced DMEM/F-12 (Invitrogen, cat. 12634028), 4.9% defined fetal bovine serum, heat inactivated (HyClone Laboratories Inc., Logan, UT, cat. SH30070.03HI), 389 ng/mL hydrocortisone (Sigma-Aldrich, cat. H4001), 9.7 ng/mL human EGF recombinant protein (Invitrogen, cat. PHG0313), 23.4 microg/mL adenine (Sigma-Aldrich, cat. A2786), 97.3 U/mL penicillin-streptomycin (Invitrogen, cat. 15140122), 1.9 mM L-glutamine (Invitrogen, cat. 25030081), and 9.7 microM Y-27632 dihydrochloride (Tocris Bioscience, Bristol, United Kingdom, cat. 1254). The PDCs were cultured in complete DMEM/F12 media without 10 microM Y-27632 dihydrochloride for at least two passages prior to the screen. The established cell lines NCI-H1341 and […] were cultured in DMEM/F-12, HEPES (Invitrogen, cat. 11330032), 5% defined fetal bovine serum (HyClone Laboratories Inc., cat. SH30070.03), ITS premix universal culture supplement [insulin (5 microg/mL), transferrin (5 microg/mL), and selenious acid (5 ng/mL)] […]

Measured: viability, T/C
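Further: spheroids exposed to compounds for seven days.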

Cc1cncc(-c2nc(NCCc3c[nH]c4ccccc34)c3ncn(C(C)C)c3n2)c1
inactive: compound 0.1 µM 95.2% and 96.5% and 89.6% | compound 0.316 µM 96.8% [middle of 4 runs] | compound 1 µM 87.9% [middle of 5 runs] | compound 3.16 µM 56.3% [middle of 5 runs] | compound 10 µM 15.6% [middle of 4 runs]

CC(CO)NC(=O)c1cc(-c2ccc(Cl)cc2)nn(-c2cnn(C)c2)c1=O (centres undefined)
inactive: compound 0.1 µM 101% and 90.4% | compound 0.316 µM 94.8% [middle of 4 runs] | compound 1 µM 94.9% [middle of 4 runs] | compound 10 µM 92% [middle of 6 runs]

Cc1ccccc1N=Nc1ccc(NC(=O)c2ccnn2C)c(C)c1
inactive: compound 0.1 µM 95.9% and 99.9% | compound 0.316 µM 97.2% and 91.6% and 119% | compound 1 µM 99.8% and 92.3% | compound 3.16 µM 91.1% [middle of 5 runs] | compound 10 µM 52.5% and 52.8% and 50.3%
